Laboratory results from patent US20240058349A1, “PI3K INHIBITORS FOR PROTECTION AGAINST GLUCOCORTICOID-INDUCED ATROPHY” (Northwestern University, priority 2020, published 2024).
For some of these results: For at least one compound, name, drawing or mass did not settle the structure. Some compounds share one wording; it may come from a single statement. Some of these results come from one statement about several compounds together.

What was measured:
Granta xenografts = test: Granta lymphoma xenograft tumor growth study; assay type: in vivo, nu/nu mice
Method: Xenograft tumor growth study. 10 million Granta cells in 200 ul BD Matrigel Matrix were subcutaneously injected into the right flank of 7 weeks old female nu/nu mice (Taconic). Animals were randomized and treated every 48 h with LY294002 (20 mg/kg), Rapamycin (5 mg/kg) of vehicle (30% PEG3350, 4% DMSO, 5% Tween 20 in PBS) followed by Dex (1 mg/kg) of vehicle (5% DMSO in PBS) 6 h later. Body weight was recorded twice a week. Tumor size was measured twice a week by digital calipers, drug interaction mode was calculated based on combination index method (Refs. 16,17; incorporated by reference in their entireties). Combination index (CI) of Dex+Rapa/LY294002 was calculated as ratio (observed fraction value of combination group)/(expected fraction value of combination group). The observed fractions were calculated as ratio (mean value of experiment)/(mean value of control), and the expected fractions values of combination effect between combined groups and single drug groups were calculated as expected fraction=(mean observed fraction of Dex)×(mean observed fraction of Rapa/LY294002). CI<1, CI=1 and CI>1 indicates a synergy, additive effect and antagonism, respectively.
Histological analysis and immunostaining. Xenograft and skin samples were fixed in formaldehyde, embedded in paraffin, sections were stained with hematoxylin and eosin. The bone samples after formaldehyde fixation were decalcinated in decalcination buffer (0.5 M EDTA, 0.7 mM NaOH, pH=7.0) for 14 days, then washed with PBS twice and further processed according to standard histology protocol. Ki67 and Caspase 3 were detected by immunostaining with antibodies to Ki-67 and Caspase-3 (Cell Signaling, San Jose, CA).
Morphometric analysis. Quantification of the epidermal width, dermal adipose thickness, bone thickness and cellularity of xenograft tissue was performed in sections stained with hematoxylin and eosin. At least 5 individual fields per slide of each individual sample/treatment (at least 50 images/treatment group) were analyzed using Axioplan2 microscope software (Carl Zeiss). The epidermal, dermal adipose, or bone thickness and cell density in treated animals is presented as % to control animals.
Animals were randomized to different treatment groups after tumor volume reached 50 mm3. All compounds were delivered via i.p. injections of LY29400 (20 mg/kg), Rapa (5 mg/kg) or vehicle in the morning followed by Dex treatment (1 mg/kg) or vehicle 6 h later following the optimal regimens for REDD1 inhibition developed in vitro (2,13). All treatment regiments were only minimally toxic according to the steady increase in body weight monitored twice weekly (FIG. 11). Tumor volume was measured also twice a week (FIG. 12).

Granta cells = test: Apoptosis induction (PI staining sub-G1, PARP cleavage) in Granta cells; assay type: cell-based, human
Method: Apoptosis induction was evaluated using Western blot analysis of PARP cleavage and propidium iodine (PI) staining (Ref. 14; incorporated by reference in its entirety).
Cooperative anti-lymphoma effects of Dex and PI3K/Akt/mTOR inhibitors in vitro. PI3K/Akt/mTOR inhibitors were developed as anti-cancer drugs. To assess whether and how PI3K/Akt/mTOR inhibitors interacted with Dex anti-lymphoma effects, experiments were conducted to evaluate the efficacy of the combined treatment in vitro using such readouts as cell viability (MTT test) and apoptosis (PARP cleavage and sub-G1-phase cell population determined by FACS). The cytotoxic effect of Dex and PI3K inhibitors in wide concentration range (LY294002 1-500 uM, WM 0.1-25 uM, AZD8055 0.05-5 uM) was assessed (FIG. 8) and determined IC50 values after 24 h treatment (Table 8).
The effect of Dex combined with LY294002, AZD8055, WM or reference inhibitor Rapa was examined on apoptosis.

REDD1 = REDD1 mRNA/protein expression (Q-PCR, Western blot) in CEM and Granta cells; assay type: cell-based, human
Method: Cell cultures. Acute lymphoblastic leukemia cell line CEM and mantle cell lymphoma cell line Granta were obtained from ATCC and cultured in RPMI-1640 (Thermo Fischer) with 10% FBS (HyClone), sodium piruvate (10 mM), HEPES (10 mM) and antibiotics (referred thereafter as complete medium; Thermo Fischer) (Ref 14; incorporated by reference in its entirety). Peripheral blood samples were collected from healthy volunteers. The ethical Committee of the Blokhin Cancer Research Center approved this study, written informed consents were provided. Mononuclear cell fraction was isolated by 1.077 g/ml Ficoll-Isopaque density-gradient centrifugation and cultured in the complete medium. Cells were pretreated with Rapa (0.1-5 uM), LY294002 (10-100 uM), WM (1-10 uM) and AZD8055 (0.1-2 uM) or vehicle for 6 h, then were treated for Dex (1-10 uM) or vehicle for 24-144 h as indicated.
Western blot analysis. Western blot analysis was performed (Ref 10; incorporated by reference in its entirety). The following antibodies were used: GR (H-300) (Santa Cruz Biotechnology, Dallas, TX), phospho-GR (Ser211), phospho-4E-BP1 (Thr37/46), phospho-Akt (Ser473), Akt, 4E-BP1, cleaved and full-length PARP, GAPDH, HDAC1 (Cell Signaling, San Jose, CA), REDD1 (Proteintech Group, Rosemont, IL).
RNA extraction and Q-PCR. Total RNA isolation, reverse transcription and Q-PCR were performed (Ref 10; incorporated by reference in its entirety). Primers were designed with NCBI Primer-BLAST (Table 1). Results were normalized to the expression of the housekeeping RPL27 gene.
The optimal regimen of cell treatment: pre-treatment with REDD1 inhibitors for 6 h followed by Dex treatment for 24 h was chosen (Ref. 12,13; incorporated by reference in their entireties).

[1] = in combination with Dex 1 mg/kg, p<0.05

## O=c1cc(N2CCOCC2)oc2c(-c3ccccc3)cccc12 [LY294002]
Granta xenografts; Rapa 5 mg/kg or LY294002 20 mg/kg individually
  day from which tumor growth inhibition was statistically significant relative to control, individual treatment: ≥ 12 days
Granta xenografts; [1]
  day from which tumor growth inhibition was statistically significant relative to Dex-treated group, in combination with Dex: ≥ 21 days
  day from which tumor growth inhibition was statistically significant relative to control, in combination with Dex: ≥ 12 days
Granta cells; combined with Dex
  apoptosis induction in combination with Dex, Granta cells: cooperated with Dex in apoptosis induction
Granta cells; used alone
  apoptosis (sub-G1-phase cell population), used alone, Granta cells: stimulated apoptosis
REDD1; CEM and Granta cells, 6 h pre-treatment (LY294002 50 uM, WM 10 uM, AZD8055 1 uM), then Dex 24 h
  effect on REDD1 induction by Dex: prevented REDD1 induction
REDD1; inhibitor without Dex, mRNA in CEM cells, protein more pronounced in Granta cells
  basal REDD1 expression: blocked basal and glucocorticoid-induced REDD1 expression
